{"source": "PubChem BioAssay AID1259308 – NCATS, 2017", "purpose": "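Candidate targets for better recombinant protein yield in mammalian cells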 (primary screen)", "cells": "human HEK293 embryonic kidney cells stably expressing firefly luciferase (HEK-CMV-Luc2-Hygro)", "reagent": "single siRNA against human genes, 0.8 pmol siRNA per well", "duration": "72 h", "detection": "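Reporter luminescence and viable-cell signal on separate replicate plates, given as percent of non-targeting control and median/MAD z-scores, plus per-cell luciferase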", "reading the numbers": "total luciferase, z-score: higher = more reporter protein produced", "rule for the call": "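Active when the median/MAD z-score for overall luciferase is greater than 3; a gene was taken forward for validation with new siRNAs if at least two of its three siRNAs passed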", "meaning of the calls": "active = raised luciferase; inactive = no rise", "note": "This is a random part of about 59,000 deposited reagents. Of all reagents, about 1,510 (2.6%) are marked active. 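Calls use total luciferase alone and ignore viability, so some active siRNAs may act by altering cell number.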 Unmarked entries are inactive. Reagents against one gene are numbered here. Further read-outs or replicates are left out here."}
{"Gene": "ERC2 (ELKS/RAB6-interacting/CAST family member 2)", "reagent": 1, "total luciferase, z-score": -0.35}
{"Gene": "ERC2 (ELKS/RAB6-interacting/CAST family member 2)", "reagent": 2, "total luciferase, z-score": 0.967}
{"Gene": "ERC2 (ELKS/RAB6-interacting/CAST family member 2)", "reagent": 3, "total luciferase, z-score": "3.71 (active)"}
{"Gene": "LRRTM1 (leucine rich repeat transmembrane neuronal 1)", "reagent": 1, "total luciferase, z-score": -0.35}
{"Gene": "LRRTM1 (leucine rich repeat transmembrane neuronal 1)", "reagent": 2, "total luciferase, z-score": 0.183}
{"Gene": "LRRTM1 (leucine rich repeat transmembrane neuronal 1)", "reagent": 3, "total luciferase, z-score": -0.757}
{"Gene": "LINC01973 (long independently transcribed non-coding RNA 1973)", "reagent": 1, "total luciferase, z-score": -1.15}
{"Gene": "LINC01973 (long independently transcribed non-coding RNA 1973)", "reagent": 2, "total luciferase, z-score": "3.07 (active)"}
{"Gene": "LINC01973 (long independently transcribed non-coding RNA 1973)", "reagent": 3, "total luciferase, z-score": 0.142}
{"Gene": "NMNAT2 (nicotinamide nucleotide adenylyltransferase 2)", "reagent": 1, "total luciferase, z-score": -1.07}
{"Gene": "NMNAT2 (nicotinamide nucleotide adenylyltransferase 2)", "reagent": 2, "total luciferase, z-score": "3.53 (active)"}
{"Gene": "NMNAT2 (nicotinamide nucleotide adenylyltransferase 2)", "reagent": 3, "total luciferase, z-score": 2.97}
{"Gene": "ZFTRAF1 (zinc finger TRAF-type and ring finger containing 1)", "reagent": 1, "total luciferase, z-score": 0.0239}
{"Gene": "ZFTRAF1 (zinc finger TRAF-type and ring finger containing 1)", "reagent": 2, "total luciferase, z-score": 0.7}
{"Gene": "ZFTRAF1 (zinc finger TRAF-type and ring finger containing 1)", "reagent": 3, "total luciferase, z-score": 1.87}
{"Gene": "CC2D1B (coiled-coil and C2 domain containing 1B)", "reagent": 1, "total luciferase, z-score": -0.535}
{"Gene": "CC2D1B (coiled-coil and C2 domain containing 1B)", "reagent": 2, "total luciferase, z-score": -0.559}
{"Gene": "CC2D1B (coiled-coil and C2 domain containing 1B)", "reagent": 3, "total luciferase, z-score": 0.181}
{"Gene": "LCAT (lecithin-cholesterol acyltransferase)", "reagent": 1, "total luciferase, z-score": 0.617}
{"Gene": "LCAT (lecithin-cholesterol acyltransferase)", "reagent": 2, "total luciferase, z-score": -0.523}
{"Gene": "LCAT (lecithin-cholesterol acyltransferase)", "reagent": 3, "total luciferase, z-score": "4.56 (active)"}
{"Gene": "ZC2HC1B (zinc finger C2HC-type containing 1B)", "reagent": 1, "total luciferase, z-score": 0.692}
{"Gene": "ZC2HC1B (zinc finger C2HC-type containing 1B)", "reagent": 2, "total luciferase, z-score": 2.23}
{"Gene": "ZC2HC1B (zinc finger C2HC-type containing 1B)", "reagent": 3, "total luciferase, z-score": -2.58}
{"Gene": "RNF187 (ring finger protein 187)", "reagent": 1, "total luciferase, z-score": 1.12}
{"Gene": "RNF187 (ring finger protein 187)", "reagent": 2, "total luciferase, z-score": 2.96}
{"Gene": "RNF187 (ring finger protein 187)", "reagent": 3, "total luciferase, z-score": 0.739}
{"Gene": "TMEM14C (transmembrane protein 14C)", "reagent": 1, "total luciferase, z-score": 0.0839}
{"Gene": "TMEM14C (transmembrane protein 14C)", "reagent": 2, "total luciferase, z-score": 0.102}
{"Gene": "TMEM14C (transmembrane protein 14C)", "reagent": 3, "total luciferase, z-score": 0.18}
{"Gene": "HERC3 (HECT and RLD domain containing E3 ubiquitin protein ligase 3)", "reagent": 1, "total luciferase, z-score": -0.767}
{"Gene": "HERC3 (HECT and RLD domain containing E3 ubiquitin protein ligase 3)", "reagent": 2, "total luciferase, z-score": -1.96}
{"Gene": "HERC3 (HECT and RLD domain containing E3 ubiquitin protein ligase 3)", "reagent": 3, "total luciferase, z-score": -0.575}

Records above whose target name starts with R or r:
{"Gene": "RNF187 (ring finger protein 187)", "reagent": 1, "total luciferase, z-score": 1.12}
{"Gene": "RNF187 (ring finger protein 187)", "reagent": 2, "total luciferase, z-score": 2.96}
{"Gene": "RNF187 (ring finger protein 187)", "reagent": 3, "total luciferase, z-score": 0.739}
